Experimental data published in PubChem BioAssay AID1347075 (National Center for Advancing Translational Sciences (NCATS), 2019).
In all, about 400,000 compounds went through this assay and about 5,500 (1.4%) were called active. This list was built around the results that the source calls inconclusive (neither active nor inactive); the mix of calls is not that of the screen. Calls come from the whole dose curve; as a rule, active = well fitted cell-killing curve with a large enough effect; inconclusive = small, poorly fitted or top-dose-only effect, or effect the other way; inactive = flat fitted curve, though single readings scatter. Where the call is inconclusive, the potency comes from a doubtful curve fit.

Experiment: qHTS assay for MDR1-selective chemotherapeutics: Primary screen using the parental adenocarcinoma cell KB-3-1; note: nearly all actives have a fitted effect of over 60% in size
Conditions: KB-3-1 viability, CellTiter-Glo ATP luminescence, 72 h; activity change, negative = cytotoxic: at 46.1 µM (top of the series)
Summary of the method: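 Screening of KB-3-1 cells (DMEM, 10% FBS, phenol-red free) ran from lowest to highest compound concentration; after 72 h at 37 °C viability was read luminescently and curves fitted.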
% is set by controls: 0 for no effect and ±100 for the full control effect; potency is the fitted concentration of half-maximal effect.

Row | SMILES | Potency | activity change, negative = cytotoxic
1 | Cc1[nH]n(-c2ccccc2)c(=O)c1N=Nc1ccccc1C(=O)N1CCOCC1 | inconclusive: 18.4 µM [cytotoxic, single point] | –
2 | Cc1cc2c(cc1C)-n1nnnc1C(N(Cc1ccccc1)Cc1ccccc1)C(=O)N2 (configuration not stated) | inconclusive: 29.1 µM [cytotoxic, single point] | –
3 | Cc1ccc2nsnc2c1NC(=O)c1ccc(-c2cc(Cl)ccc2Cl)o1 | inconclusive: 16.4 µM [cytotoxic, single point] | –
4 | Cc1cc2nc(C3CCCCC3)c(Cc3ccsc3)n2c(C)c1Br | inconclusive: 32.6 µM [cytotoxic, single point] | –
5 | O=C(C1=C[C@H](c2csc3ccccc23)C[C@H](OCCCCO)O1)N1CCN(Cc2ccc3c(c2)OCO3)CC1 | inconclusive: 29.1 µM [cytotoxic, single point] | –
6 | Cc1c(NS(=O)(=O)c2cccc(C(=O)NCc3ccc(Cl)cc3)c2)c(=O)n(-c2ccccc2)n1C | inconclusive: 11.6 µM [rising, partial curve, poor fit] | –
7 | CCN1CCN(C(=S)Nc2ccc3nc(N4CCN(CC)CC4)cc(C)c3c2)CC1 | inconclusive: 13 µM [cytotoxic, partial curve, poor fit] | –
8 | COc1ccc(CCNC(=O)CSc2nnc3ccccn23)cc1 | inactive | –
9 | COc1ccc(S(=O)(=O)N2CCCCC2)cc1NC(=O)C1CC1 | inconclusive: 32.6 µM [rising, single point] | –
10 | CCc1ccc(NC(=O)c2c(Cl)nc(C)c(Cl)c2C)cc1 | inconclusive: 18.4 µM [cytotoxic, single point] | –
11 | O=C(Nc1ccc(F)cc1)C(c1ccccc1OC(F)(F)F)N1CCN(c2cccc(C(F)(F)F)n2)CC1 (configuration not stated) | inconclusive: 20.6 µM [cytotoxic, single point] | –
12 | CC1(C)Cc2c(sc(NC(=O)COc3cccc4ccccc34)c2C#N)C(C)(C)N1 | – | inconclusive: -39.9% [cytotoxic]
13 | Cc1ccc(-n2c(O)c(/C=N/NC(=O)C3COc4ccccc4O3)c3ccccc3c2=O)cc1 (configuration not stated) | inconclusive: 20.6 µM [cytotoxic, single point] | –
14 | CCc1nnc(NC(=O)c2ccc(Br)c(S(=O)(=O)N3CCOCC3)c2)s1 | inactive | –
15 | O=C(Nc1cc(Br)ccc1O)c1cc(-c2ccco2)on1 | inactive | –
16 | O=C(OCc1cccc([N+](=O)[O-])c1)c1ccc2ccccc2n1 | inactive | –
17 | O=S1(=O)c2ccc(Br)cc2N2CCC[C@@H]2CN1Cc1ccccc1 | inconclusive: 2.91 µM [cytotoxic, partial curve, poor fit] | –
18 | C=CCNc1nc(N2CCOCC2)c(C#N)c2c1CN(C)CC2 | inconclusive: 29.1 µM [cytotoxic, single point] | –
19 | CC(C)C(=O)NCCn1ccc2ccccc21 | inactive | –
20 | O=C(CN1CCCCC1)N1N=C(c2cccs2)CC1c1cccs1 (configuration not stated) | inconclusive: 13 µM [rising, partial curve] | –
21 | Cc1cccc(-n2ccc(=O)c(C(=O)Nc3ccc(S(=O)(=O)Nc4onc(C)c4C)cc3)n2)c1 | inactive | –
22 | CC(=O)NC(c1ccccc1)c1c(O)ccc2ccccc12 (configuration not stated) | inactive | –
23 | CCOC(=O)c1c(C)[nH]c(C)c1S(=O)(=O)NCCN1CCN(c2cc(Cl)ccc2C)CC1 | active: 16.4 µM | –
24 | N#CC1C(C#N)N2CCCN2C1c1ccc(Cl)cc1 (configuration not stated) | inconclusive: 20.6 µM [cytotoxic, single point] | –

Row | SMILES | Potency | activity change, negative = cytotoxic
25 | CC1(Oc2ccc3ccccc3c2)CCN(Cc2cccn2-c2nccs2)C1 (configuration not stated) | inactive | –
26 | Cc1ccc(-c2csc3ncnc(Sc4nnnn4C4CC4)c23)cc1 | inconclusive: 20.6 µM [cytotoxic, single point] | –
27 | Cc1ccc(-c2cc(C(=O)NCC3CCCO3)no2)cc1 (configuration not stated) | inactive | –
28 | COc1cccc(CNC(=O)C2CCN(Cc3cnn(-c4ccccc4)c3-n3cccc3)CC2)c1 | inactive | –
29 | CN(c1cccc(Cl)c1)S(=O)(=O)c1cccc(C(=O)NC2=NCCS2)c1 | active: 23.1 µM | –
30 | CC(C)NC(=O)NNC(=O)Cn1nnc(-c2cccc(Cl)c2Cl)n1 | inconclusive: 29.1 µM [rising, single point] | –
31 | CCOC(=O)C(C)Sc1nc2c(cnn2-c2ccc(F)cc2)c(=O)[nH]1 (configuration not stated) | inconclusive: 29.1 µM [cytotoxic, single point] | –
32 | COc1cccc(C(=O)c2sc(Nc3ccc(C)cc3C)c(S(=O)(=O)c3ccccc3)c2N)c1 | inactive | –
33 | Cc1cc(N2CCCCC2)nc2ccc(NC(=O)CCC(=O)N3CCN(c4cccc(Cl)c4)CC3)cc12 | inconclusive: 29.1 µM [cytotoxic, single point] | –
34 | OCC(O)C[n+]1cccc(Br)c1 (configuration not stated) | – | inconclusive: 43.7%
35 | CC(C)Cc1nc2oc3c(=O)[nH]cnc3c2c2c1CCC2 | inactive | –
36 | COC(=O)[C@@]12C[C@@H](CC(=O)NCc3cccc4ccccc34)C(=O)N(Cc3ccc4c(c3)OCO4)C1=CCC(C)(C)C2 | inconclusive: 23.1 µM [cytotoxic, single point] | –
37 | COc1cc(OC)cc(C(=O)N[C@H](C(=O)Nc2nc3ccccc3[nH]2)C(C)C)c1 | active: 1.64 µM | –
38 | CCn1c(Cl)c(C=O)s/c1=N\S(=O)(=O)c1ccccc1 | inconclusive: 18.4 µM [cytotoxic, single point] | –
39 | O=C(Nc1c(Cl)cc2c(c1Cl)Cc1cc([N+](=O)[O-])ccc1-2)C(Cl)Cl | inconclusive: 23.1 µM [cytotoxic, single point] | –
40 | COc1ccc(-c2cc(-c3nnc(COC(=O)CC4CC5CCC4C5)o3)c3ccccc3n2)cc1OC (configuration not stated) | inconclusive: 6.51 µM [rising, partial curve, poor fit] | –
41 | Oc1c(C(c2ccccc2)N2CCOCC2)ccc2ccccc12 (configuration not stated) | inconclusive: 20.6 µM [cytotoxic, single point] | –
42 | N/C(=N\c1nc2c(c(=O)[nH]1)CCC2)Nc1cccc(Cl)c1 | inconclusive: 29.1 µM [cytotoxic, single point] | –
43 | COc1cccc(C(=O)N=c2sc3cc(S(C)(=O)=O)ccc3n2C)c1 | inactive | –
44 | CCCC(=O)N1CCN(c2ccc(NC(=O)c3ccc(OCC)c([N+](=O)[O-])c3)cc2)CC1 | inactive | –
45 | CC(=O)N1N=C(c2ccccc2O)OC1(C)CC(=O)Nc1ccccc1 (configuration not stated) | inconclusive: 6.51 µM [rising, full curve, poor fit] | –
46 | COc1ccc(-c2[nH]c(-c3ccccc3)nc2SCC(=O)NC2CCCC2)cc1 | inconclusive: 29.1 µM [cytotoxic, single point] | –
47 | COC(=O)C(=O)C/C(=N/Nc1ncnc2ccccc12)c1ccc(Cl)cc1 | inconclusive: 20.6 µM [cytotoxic, single point] | –
48 | Cc1ccsc1CN(C)c1ncnc2ccc(-c3ccc4c(c3)OCO4)cc12 | inconclusive: 29.1 µM [cytotoxic, single point] | –

Molecules above with fluorine:
Row | SMILES | Potency | activity change, negative = cytotoxic
11 | O=C(Nc1ccc(F)cc1)C(c1ccccc1OC(F)(F)F)N1CCN(c2cccc(C(F)(F)F)n2)CC1 (configuration not stated) | inconclusive: 20.6 µM [cytotoxic, single point] | –
31 | CCOC(=O)C(C)Sc1nc2c(cnn2-c2ccc(F)cc2)c(=O)[nH]1 (configuration not stated) | inconclusive: 29.1 µM [cytotoxic, single point] | –

(listing goes on)

Row | SMILES | Potency | activity change, negative = cytotoxic
49 | COc1cccc(NC(=O)[C@H](NC(=O)[C@@H]2Cc3ccccc3CN2)c2ccccc2)c1 | inactive | –
50 | CC(C)(O)C#Cc1ccc(C(=O)N2CCCC(CNS(=O)(=O)c3cccs3)C2)o1 (configuration not stated) | inactive | –
51 | COc1ccc(Nc2nc(N)nc(CSc3nc4ccccc4s3)n2)cc1 | inactive | –
52 | Cc1nc(C)c(CCNC(=O)c2ccc(C(F)(F)F)cc2)s1 | inconclusive: 7.31 µM [rising, partial curve, poor fit] | –
53 | O=C(COc1ccccc1)Nc1nc(-c2ccncc2)cs1 | inactive | –
54 | COc1ccc(OC)c(NC(=O)c2cc(S(=O)(=O)N3CCCC3)cn2C)c1 | inactive | –
55 | CC(C(=O)O)c1cccc(Oc2ccccc2)c1 (configuration not stated) | inactive | –
56 | COc1ccc(/C=C2\C(=N)N3N=C(CC(=O)N4CCOCC4)SC3=NC2=O)cc1 | – | inconclusive: -22.5%
57 | c1ccc(CN=C2NN=C(c3ccccc3)CS2)cc1 | inconclusive: 29.1 µM [cytotoxic, single point] | –
58 | Cc1ccc(/C=N/n2c(COc3ccccc3)n[nH]c2=S)cc1 | inactive | –
59 | CCc1ccc(-c2nc(CN3CCCC(C(=O)NCCc4ccc(OC)c(OC)c4)C3)c(C)o2)cc1 (configuration not stated) | active: 23.1 µM | –
60 | O=C(CSc1nnc(-c2ccncc2)o1)NC1CCCCC1 | – | inconclusive: 3.9%
61 | CC(C)=CNNC(=O)c1ccc(O)cc1 | inactive | –
62 | COC(=O)c1cccnc1-n1c(=O)c2cccnc2n(Cc2ccc(Cl)cc2)c1=O | inconclusive: 29.1 µM [cytotoxic, single point] | –
63 | Cc1cc2c(cc1C)CSC(c1c(O)ccc3ccccc13)SC2 | inconclusive: 23.1 µM [cytotoxic, single point] | –
64 | CC(C)CN(C(=O)c1ccc(Br)o1)C1CCS(=O)(=O)C1 (configuration not stated) | inconclusive: 14.6 µM [rising, partial curve] | –
65 | CC(=O)c1ccc(C(=O)Nc2ccc(N3CCOCC3)cc2)cc1 | inactive | –
66 | Cc1c(C(=O)OC2CCCCCC2)[nH]c2c1C(=O)CC(c1ccccc1Cl)C2 (configuration not stated) | inconclusive: 2.91 µM [cytotoxic, partial curve, poor fit] | –
67 | COc1cc(/C=C/C(=O)OCC(=O)NCc2ccco2)ccc1O | active: 23.1 µM | –
68 | O=C(CN1C(=O)COc2ccc(S(=O)(=O)Nc3ccccc3)cc21)NCc1ccccc1Cl | inactive | –
69 | N#Cc1c2c(c(Nc3ccc(F)cc3)n3c1nc1ccccc13)CCCC2 | inconclusive: 20.6 µM [cytotoxic, single point] | –
70 | O=C(NCCCN1CCOCC1)c1ccc(-n2nc(C(F)(F)F)cc2-c2cccs2)cc1 | inconclusive: 20.6 µM [cytotoxic, single point] | –
71 | COC(=O)C1=C(C)NC(C)=C(C(=O)OC)C1c1ccc(-c2cccc(Cl)c2Cl)o1 | inactive | –
72 | CCN(CC)S(=O)(=O)c1ccc(C(=O)Nc2nnc(CSC)o2)cc1 | inactive | –

Looked up by compound from above:
Row | SMILES | Potency | activity change, negative = cytotoxic
67 | COc1cc(/C=C/C(=O)OCC(=O)NCc2ccco2)ccc1O | active: 23.1 µM | –
52 | Cc1nc(C)c(CCNC(=O)c2ccc(C(F)(F)F)cc2)s1 | inconclusive: 7.31 µM [rising, partial curve, poor fit] | –
58 | Cc1ccc(/C=N/n2c(COc3ccccc3)n[nH]c2=S)cc1 | inactive | –
65 | CC(=O)c1ccc(C(=O)Nc2ccc(N3CCOCC3)cc2)cc1 | inactive | –
